Measured values: patent publication US20240254220A1, “COMBINED THERAPY USING ANTI-CD300C ANTIBODY” (CentricsBio, Inc., priority 2021, published 2024)
These are yes or no findings as the source states them, for the method shown. Some entries that bind do so weakly or less than the wild type.

Amino acid sequences for entries named in this document (tags omitted). A change or cut given only in a name is not applied to a line headed by its entry. Residues count along the entry.
UniProt Q08708, residues 21-183: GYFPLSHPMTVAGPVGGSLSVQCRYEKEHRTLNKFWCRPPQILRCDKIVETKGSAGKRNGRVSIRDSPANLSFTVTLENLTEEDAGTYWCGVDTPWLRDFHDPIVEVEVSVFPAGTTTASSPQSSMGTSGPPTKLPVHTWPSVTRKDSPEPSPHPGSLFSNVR

Tests used:
[1] = biological target: CD300c antigen (11832-H08H, Sino Biological) (human) (UniProt Q08708); test: selection ELISA of Example 1.2, scFv periplasmic extract on coated CD300c antigen
[2] = biological target: CD300c antigen (11832-H08H, Sino Biological) (human) (UniProt Q08708); test: binding ELISA on coated CD300c antigen

- binding [1]: binds
- binding [2]: binds
B1: SK12 (antibody, V domains shown)
VH: RVQLLESGGGLVQPGGSLRLSCAASGFTFSSYAMHWVRQAPGKGLEWVSAISGSGGDTYHADSVKGRFTISRDNSKNTLYLQMNSLRAEDTAVYYCTRGLSGFDYWGQGTLVTVSS
VL: EIVLTQSPGTLSLSPGERATLSCRASQSISSYLNWYQQKPGQAPRLLIYDASNRAPGIPDRFSGSGSGTDFTLTISRLEPEDFAVYYCQQSYSIPITFGQGTKVEIKF
